Results are given in words; binding and its absence hold for the method and conditions named. Binding seen in cells or lysates may run through a third protein. Some binding calls cover weakened binding; strength is not graded here.

The chains behind the UniProt entries cited, without tags or fusion partners.
UniProt Q02880: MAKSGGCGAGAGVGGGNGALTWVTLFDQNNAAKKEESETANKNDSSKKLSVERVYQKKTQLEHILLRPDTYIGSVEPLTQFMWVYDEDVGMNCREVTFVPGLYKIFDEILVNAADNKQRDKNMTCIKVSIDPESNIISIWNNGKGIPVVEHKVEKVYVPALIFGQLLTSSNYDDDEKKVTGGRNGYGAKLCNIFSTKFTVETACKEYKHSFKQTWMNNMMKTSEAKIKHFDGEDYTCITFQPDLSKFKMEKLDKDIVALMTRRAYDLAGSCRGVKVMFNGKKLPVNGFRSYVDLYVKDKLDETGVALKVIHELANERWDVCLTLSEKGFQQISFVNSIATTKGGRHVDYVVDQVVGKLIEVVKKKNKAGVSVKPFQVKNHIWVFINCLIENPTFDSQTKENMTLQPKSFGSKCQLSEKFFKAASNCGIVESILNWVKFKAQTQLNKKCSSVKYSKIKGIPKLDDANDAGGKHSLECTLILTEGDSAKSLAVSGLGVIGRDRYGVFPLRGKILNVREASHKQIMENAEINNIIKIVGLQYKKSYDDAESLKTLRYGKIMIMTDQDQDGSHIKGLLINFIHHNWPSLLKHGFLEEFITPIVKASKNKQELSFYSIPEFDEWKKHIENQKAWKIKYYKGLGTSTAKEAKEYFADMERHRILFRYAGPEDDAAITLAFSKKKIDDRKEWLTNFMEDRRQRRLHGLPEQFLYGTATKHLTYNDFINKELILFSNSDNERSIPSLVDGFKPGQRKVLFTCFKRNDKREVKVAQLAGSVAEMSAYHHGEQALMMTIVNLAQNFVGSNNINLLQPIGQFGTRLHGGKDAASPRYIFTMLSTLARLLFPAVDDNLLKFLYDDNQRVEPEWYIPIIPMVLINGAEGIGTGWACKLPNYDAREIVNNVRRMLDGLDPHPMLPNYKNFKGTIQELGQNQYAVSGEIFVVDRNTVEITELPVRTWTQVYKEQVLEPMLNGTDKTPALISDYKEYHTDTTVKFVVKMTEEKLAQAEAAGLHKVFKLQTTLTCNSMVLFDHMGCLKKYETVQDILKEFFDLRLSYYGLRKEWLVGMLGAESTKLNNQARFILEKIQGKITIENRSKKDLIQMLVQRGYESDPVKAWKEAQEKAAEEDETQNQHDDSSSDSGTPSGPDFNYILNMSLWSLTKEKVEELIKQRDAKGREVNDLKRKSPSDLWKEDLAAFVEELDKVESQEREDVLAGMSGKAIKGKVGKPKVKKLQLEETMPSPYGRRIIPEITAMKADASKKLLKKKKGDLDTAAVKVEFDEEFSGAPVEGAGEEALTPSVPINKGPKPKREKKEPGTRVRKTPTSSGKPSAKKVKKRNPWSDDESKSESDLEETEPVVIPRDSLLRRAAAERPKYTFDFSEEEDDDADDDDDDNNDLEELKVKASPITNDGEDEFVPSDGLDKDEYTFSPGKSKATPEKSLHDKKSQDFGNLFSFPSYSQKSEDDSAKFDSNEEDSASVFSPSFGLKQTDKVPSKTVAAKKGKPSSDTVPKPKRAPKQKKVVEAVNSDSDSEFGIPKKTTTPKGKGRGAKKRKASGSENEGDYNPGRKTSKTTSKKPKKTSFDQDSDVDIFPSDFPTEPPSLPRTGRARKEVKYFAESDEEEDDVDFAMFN
UniProt Q00987: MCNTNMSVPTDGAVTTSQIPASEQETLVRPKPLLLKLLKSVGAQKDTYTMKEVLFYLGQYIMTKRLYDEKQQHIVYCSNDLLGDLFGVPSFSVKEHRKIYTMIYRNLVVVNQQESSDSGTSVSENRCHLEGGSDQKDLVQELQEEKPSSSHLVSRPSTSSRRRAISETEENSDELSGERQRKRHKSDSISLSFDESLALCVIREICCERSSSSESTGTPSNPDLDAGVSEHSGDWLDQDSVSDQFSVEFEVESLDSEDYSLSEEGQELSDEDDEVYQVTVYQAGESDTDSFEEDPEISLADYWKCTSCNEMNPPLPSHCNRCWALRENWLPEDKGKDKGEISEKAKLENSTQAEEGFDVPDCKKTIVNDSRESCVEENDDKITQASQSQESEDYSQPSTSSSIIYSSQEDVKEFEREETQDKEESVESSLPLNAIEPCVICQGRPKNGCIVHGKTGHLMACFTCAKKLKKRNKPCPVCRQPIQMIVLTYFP

The target in test [1] is Flag-tagged TOP2β (human) (UniProt Q02880). The test is described as follows: co-IP; HEK293 cells transfected 48 h with the Flag plasmid; IP with FLAG beads, IB; cells untreated or treated with VP-16 and MG132 (20 μM) 5 h, with ICRF-193 (50 μM) and MG132 (20 μM) 5 h, or with vehicle.
Test [2] deals with endogenous MDM2 (human (endogenous in HEK293, H1299, A549)) (UniProt Q00987). Nature of the test: co-IP; whole-cell lysates of H1299 and A549 cells; IP with MDM2 antibody or normal rabbit IgG, IB; cells untreated or treated with VP-16 and MG132 (20 μM) 5 h; A549 also with siRNA against p53.
Another test addresses Flag-tagged MDM2 (UniProt Q00987). Nature of the test: co-IP; HEK293 cells transfected 48 h with the Flag plasmid; IP with FLAG beads, IB; cells untreated or treated with VP-16 and MG132 (20 μM) 5 h, with ICRF-193 (50 μM) and MG132 (20 μM) 5 h, or with vehicle.

Take “endogenous MDM2 (from UniProt Q00987 1-491) (enzyme)”: the binding result in test [1] is reported as “binds”.

With “endogenous TOP2β (from UniProt Q02880 1-1626) (enzyme)”, the binding result (in test [2]; with Flag-tagged MDM2) was “binds” in each case.

The record behind these values is article PMC10806188.
